No constants are given. Whether binding was seen depends on the method and setting. Some binding calls cover weakened binding; strength is not graded here.
Key:
EWSR1-SNAP [1] = target: EWSR1-SNAP (UniProt Q01844); assay: nanoparticle tracking analysis; self-association into mesoscale clusters; 0.25-1 uM protein (0.3 uM EWSR1-SNAP), 10 mM KCl, 20 mM HEPES pH 7.4, 24 °C, recorded ~6-8 min after sample preparation; buffer only and with small amphiphilic molecules; both purified
EWSR1-SNAP [2] = target: EWSR1-SNAP (UniProt Q01844); assay: dynamic light scattering; self-association into mesoscale clusters; 0.25-1 uM protein (0.3 uM EWSR1-SNAP), ~10 mM KCl, 20 mM HEPES pH 7.4, 24 °C, hydrodynamic diameter followed over 32 min; buffer only and with ATP.Mg2+, nucleotides, phosphates, NaXS, NaTS, HD or TEG; 1 uM FUS-SNAP is said to phase separate; both purified
untagged FUS = untagged FUS (UniProt P35637); assay: dynamic light scattering; self-association into mesoscale clusters at 0.25 uM protein with 60 mM hydrotrope (NaXS or NaTS), ~10 mM KCl, 20 mM HEPES pH 7.4, 24 °C; both purified

The chains behind the UniProt entries cited, without tags or fusion partners.
UniProt Q01844: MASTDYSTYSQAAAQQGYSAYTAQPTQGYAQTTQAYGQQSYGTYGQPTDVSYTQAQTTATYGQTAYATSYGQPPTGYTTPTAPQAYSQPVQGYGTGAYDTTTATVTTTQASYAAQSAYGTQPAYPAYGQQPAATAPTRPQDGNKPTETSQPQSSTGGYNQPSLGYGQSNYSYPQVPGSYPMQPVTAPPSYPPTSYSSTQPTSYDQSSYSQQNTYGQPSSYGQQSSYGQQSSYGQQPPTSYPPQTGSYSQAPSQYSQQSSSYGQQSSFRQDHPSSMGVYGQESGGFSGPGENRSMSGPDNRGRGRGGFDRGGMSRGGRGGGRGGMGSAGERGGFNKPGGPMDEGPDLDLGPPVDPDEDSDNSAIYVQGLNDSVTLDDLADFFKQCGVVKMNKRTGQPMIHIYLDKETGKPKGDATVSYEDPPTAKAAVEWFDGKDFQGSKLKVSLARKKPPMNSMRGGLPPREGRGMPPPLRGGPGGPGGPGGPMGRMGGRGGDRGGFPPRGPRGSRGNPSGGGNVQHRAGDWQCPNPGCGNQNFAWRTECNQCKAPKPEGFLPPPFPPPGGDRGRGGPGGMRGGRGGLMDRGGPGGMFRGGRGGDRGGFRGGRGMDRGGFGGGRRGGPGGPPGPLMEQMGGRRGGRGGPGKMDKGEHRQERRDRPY
UniProt P35637: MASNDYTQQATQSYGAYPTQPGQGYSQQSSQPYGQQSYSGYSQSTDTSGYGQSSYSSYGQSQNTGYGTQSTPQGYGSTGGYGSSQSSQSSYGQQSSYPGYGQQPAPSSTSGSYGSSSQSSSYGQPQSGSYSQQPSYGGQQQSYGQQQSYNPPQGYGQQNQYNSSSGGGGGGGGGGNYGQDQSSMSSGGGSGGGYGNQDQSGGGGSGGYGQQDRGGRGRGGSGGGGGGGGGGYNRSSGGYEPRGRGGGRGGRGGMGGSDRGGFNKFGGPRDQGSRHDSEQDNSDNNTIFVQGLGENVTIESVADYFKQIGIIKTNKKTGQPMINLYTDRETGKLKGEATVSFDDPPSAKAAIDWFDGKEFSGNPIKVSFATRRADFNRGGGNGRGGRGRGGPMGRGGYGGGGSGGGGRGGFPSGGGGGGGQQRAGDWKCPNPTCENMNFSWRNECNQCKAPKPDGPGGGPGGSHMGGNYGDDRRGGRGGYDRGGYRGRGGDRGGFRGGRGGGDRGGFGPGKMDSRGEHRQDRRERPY

binding (EWSR1-SNAP [1]) | binding (EWSR1-SNAP [2]) | binding (untagged FUS) | Substance
binds | binds |  | EWSR1-SNAP (from UniProt Q01844 1-656)
 |  | no binding (condition: with 60 mM NaTS) | untagged FUS (from UniProt P35637 1-526)

— publication PMC12673092
